This is one part of the list. The data scatter; read single values as rough.
Legend:
[1] = compound: ClCC(=O)N[C@@H]1CCCc2ccccc12; assay: log2 mean competition ratio of IA-DTB cysteine labelling (DMSO/compound) (log2 ratio); higher = stronger cysteine engagement by compound; conditions: treatment time: 4 h, cell line lysate: HEK293T
Description: (§1)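 IA-DTB competitive cysteine chemoproteomics in HEK293T RIPA lysate. Lysates were treated with compound 29 or 30 at 50 or 200 µM for 4 h, then IA-DTB (500 µM, 1 h), trypsin-digested, NeutrAvidin-enriched and analysed by diaPASEF. Competition ratio = intensity DMSO / intensity compound (n=4 treated, n=64 DMSO); binding: mean log2 CR ≥ 1 and p ≤ 0.05 plus QC filters. Target is the cysteine site.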

By UniProt entry, the sequences of proteins in these tests, tags left out. Where a name states a change or a piece, a line headed by the entry shows the natural chain unless it says otherwise. Residues count along the entry.
UniProt Q8TD30: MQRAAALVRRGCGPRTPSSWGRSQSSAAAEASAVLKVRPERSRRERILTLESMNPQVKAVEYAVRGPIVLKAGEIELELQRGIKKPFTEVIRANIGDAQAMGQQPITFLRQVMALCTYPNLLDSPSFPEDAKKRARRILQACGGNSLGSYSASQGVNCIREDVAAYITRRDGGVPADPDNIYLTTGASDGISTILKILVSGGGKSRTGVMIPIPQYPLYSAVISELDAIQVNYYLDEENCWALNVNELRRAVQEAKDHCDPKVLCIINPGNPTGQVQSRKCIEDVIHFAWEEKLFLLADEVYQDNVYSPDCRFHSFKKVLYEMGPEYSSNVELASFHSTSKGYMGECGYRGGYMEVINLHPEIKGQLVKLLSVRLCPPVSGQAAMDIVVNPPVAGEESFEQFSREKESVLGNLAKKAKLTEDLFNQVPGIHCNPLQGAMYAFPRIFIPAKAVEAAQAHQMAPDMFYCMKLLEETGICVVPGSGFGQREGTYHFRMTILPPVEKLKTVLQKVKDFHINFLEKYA
UniProt P04899: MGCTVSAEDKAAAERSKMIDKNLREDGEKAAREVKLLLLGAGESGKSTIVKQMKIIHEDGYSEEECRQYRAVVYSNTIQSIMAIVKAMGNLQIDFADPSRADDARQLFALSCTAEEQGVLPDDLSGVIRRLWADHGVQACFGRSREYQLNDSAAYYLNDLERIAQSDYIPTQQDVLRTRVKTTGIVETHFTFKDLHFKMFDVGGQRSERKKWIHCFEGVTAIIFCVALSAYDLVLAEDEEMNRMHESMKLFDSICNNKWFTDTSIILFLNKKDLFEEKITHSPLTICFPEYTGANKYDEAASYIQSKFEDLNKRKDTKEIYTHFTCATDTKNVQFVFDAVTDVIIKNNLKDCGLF
UniProt Q8N2G8: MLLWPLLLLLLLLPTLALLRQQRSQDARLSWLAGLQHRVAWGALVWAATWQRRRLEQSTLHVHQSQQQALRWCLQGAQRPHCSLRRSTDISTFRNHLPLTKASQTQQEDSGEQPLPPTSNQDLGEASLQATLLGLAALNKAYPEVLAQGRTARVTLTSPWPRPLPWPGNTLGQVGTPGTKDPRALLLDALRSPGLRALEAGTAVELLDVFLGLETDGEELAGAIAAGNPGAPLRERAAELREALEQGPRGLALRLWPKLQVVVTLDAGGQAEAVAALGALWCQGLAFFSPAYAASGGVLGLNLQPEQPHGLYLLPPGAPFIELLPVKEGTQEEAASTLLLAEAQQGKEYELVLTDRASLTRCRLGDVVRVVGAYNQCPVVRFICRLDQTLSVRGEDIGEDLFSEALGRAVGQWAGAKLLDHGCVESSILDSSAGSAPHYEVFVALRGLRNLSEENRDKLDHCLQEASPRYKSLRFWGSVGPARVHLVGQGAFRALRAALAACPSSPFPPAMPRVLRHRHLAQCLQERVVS
UniProt O94808: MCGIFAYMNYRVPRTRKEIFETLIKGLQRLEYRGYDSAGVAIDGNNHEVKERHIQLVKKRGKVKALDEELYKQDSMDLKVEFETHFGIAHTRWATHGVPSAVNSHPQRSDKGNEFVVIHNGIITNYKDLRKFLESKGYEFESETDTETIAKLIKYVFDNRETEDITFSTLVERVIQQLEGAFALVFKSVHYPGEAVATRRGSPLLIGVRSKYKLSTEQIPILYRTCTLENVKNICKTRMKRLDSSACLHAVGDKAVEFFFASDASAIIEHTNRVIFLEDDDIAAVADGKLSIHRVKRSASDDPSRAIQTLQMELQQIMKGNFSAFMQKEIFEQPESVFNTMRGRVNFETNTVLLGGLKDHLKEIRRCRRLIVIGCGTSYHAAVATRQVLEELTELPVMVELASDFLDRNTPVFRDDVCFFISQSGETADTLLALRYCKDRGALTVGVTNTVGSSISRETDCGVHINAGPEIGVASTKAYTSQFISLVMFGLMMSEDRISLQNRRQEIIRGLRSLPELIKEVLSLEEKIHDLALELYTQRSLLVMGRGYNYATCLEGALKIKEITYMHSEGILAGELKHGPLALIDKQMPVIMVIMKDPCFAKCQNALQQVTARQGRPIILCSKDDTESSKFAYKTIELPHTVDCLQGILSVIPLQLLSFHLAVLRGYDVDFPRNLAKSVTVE
UniProt P49840: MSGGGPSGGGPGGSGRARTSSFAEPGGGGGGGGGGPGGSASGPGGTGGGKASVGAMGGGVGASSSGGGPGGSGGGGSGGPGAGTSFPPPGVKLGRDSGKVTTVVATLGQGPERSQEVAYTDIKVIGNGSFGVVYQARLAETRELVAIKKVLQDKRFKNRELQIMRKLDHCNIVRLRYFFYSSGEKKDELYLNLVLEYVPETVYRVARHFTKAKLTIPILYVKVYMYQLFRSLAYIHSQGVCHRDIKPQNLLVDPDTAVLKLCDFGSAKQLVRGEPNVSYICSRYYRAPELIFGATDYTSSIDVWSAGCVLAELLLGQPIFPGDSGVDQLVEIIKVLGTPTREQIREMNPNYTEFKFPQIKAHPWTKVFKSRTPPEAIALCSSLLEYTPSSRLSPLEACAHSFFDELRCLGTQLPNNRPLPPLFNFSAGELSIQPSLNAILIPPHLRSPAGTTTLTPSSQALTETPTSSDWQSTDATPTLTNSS
UniProt Q5T3I0: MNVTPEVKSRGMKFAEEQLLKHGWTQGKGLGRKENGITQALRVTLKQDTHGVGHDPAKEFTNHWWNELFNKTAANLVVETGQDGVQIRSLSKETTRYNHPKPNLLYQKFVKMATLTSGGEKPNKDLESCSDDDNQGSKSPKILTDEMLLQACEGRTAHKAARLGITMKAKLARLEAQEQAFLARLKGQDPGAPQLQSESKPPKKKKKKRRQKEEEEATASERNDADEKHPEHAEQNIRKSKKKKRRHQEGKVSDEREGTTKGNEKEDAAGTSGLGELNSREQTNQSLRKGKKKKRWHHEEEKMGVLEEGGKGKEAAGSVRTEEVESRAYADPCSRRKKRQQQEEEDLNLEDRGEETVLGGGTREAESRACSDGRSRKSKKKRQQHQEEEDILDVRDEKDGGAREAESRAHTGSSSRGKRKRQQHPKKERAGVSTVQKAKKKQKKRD
UniProt Q08379, 778-799: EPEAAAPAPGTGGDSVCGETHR
UniProt P43250, whole entry, looked up: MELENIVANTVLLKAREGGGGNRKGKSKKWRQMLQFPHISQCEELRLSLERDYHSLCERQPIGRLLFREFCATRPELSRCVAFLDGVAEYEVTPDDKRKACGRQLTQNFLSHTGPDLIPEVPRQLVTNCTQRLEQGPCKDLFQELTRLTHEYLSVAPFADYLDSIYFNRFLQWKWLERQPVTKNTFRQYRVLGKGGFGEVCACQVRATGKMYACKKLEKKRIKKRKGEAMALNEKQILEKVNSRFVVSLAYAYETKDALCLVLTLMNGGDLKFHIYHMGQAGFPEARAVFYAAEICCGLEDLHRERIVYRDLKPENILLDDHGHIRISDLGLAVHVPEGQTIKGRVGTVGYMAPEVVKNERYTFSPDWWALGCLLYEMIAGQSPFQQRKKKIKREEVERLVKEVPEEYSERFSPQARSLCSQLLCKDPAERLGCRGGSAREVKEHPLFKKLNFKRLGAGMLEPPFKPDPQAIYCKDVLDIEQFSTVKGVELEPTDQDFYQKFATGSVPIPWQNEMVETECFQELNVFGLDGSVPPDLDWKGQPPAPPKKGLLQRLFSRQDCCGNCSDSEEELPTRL

[2] = compound: ClCC(=O)N[C@H]1CCCc2ccccc12; assay: as above; conditions: treatment time: 4 h, cell line lysate: HEK293T
Description: as §1

Target	log2 mean competition ratio ([1]; 50 µM)	log2 mean competition ratio ([1]; 200 µM)	log2 mean competition ratio ([2]; 50 µM)	log2 mean competition ratio ([2]; 200 µM)
GPT2 C281 (UniProt Q8TD30)	-0.588	0.272	0.384	0.332
GNAI2 C66 (UniProt P04899)	-0.255	0.161	-0.296	0.14
GHDC C502 (UniProt Q8N2G8)	0.48	0.0734	0.549	0.273
GFPT2 C226 (UniProt O94808)	-0.19	-0.0609	0.493	0.156
GSK3A C262 (UniProt P49840)	-0.224	-0.365	0.763	0.0525
GPATCH4 C152 (UniProt Q5T3I0)	0.0915	0.0586	-0.0299	0.129
GOLGA2 C794 (UniProt Q08379)	0.0475	0.0499	-0.0715	-0.0303
GRK6 C138 (UniProt P43250)	0.052	0.0651	0.11	0.069

— the supplement of paper PMC11732987, “Enantioselective OTUD7B fragment discovery through chemoproteomics screening and high-throughput optimisation” (Communications Chemistry, 2025)
